{"sequences": {"note": "Sequences of proteins named here, by UniProt entry; tags and fusion partners are left off.", "UniProt P16794": "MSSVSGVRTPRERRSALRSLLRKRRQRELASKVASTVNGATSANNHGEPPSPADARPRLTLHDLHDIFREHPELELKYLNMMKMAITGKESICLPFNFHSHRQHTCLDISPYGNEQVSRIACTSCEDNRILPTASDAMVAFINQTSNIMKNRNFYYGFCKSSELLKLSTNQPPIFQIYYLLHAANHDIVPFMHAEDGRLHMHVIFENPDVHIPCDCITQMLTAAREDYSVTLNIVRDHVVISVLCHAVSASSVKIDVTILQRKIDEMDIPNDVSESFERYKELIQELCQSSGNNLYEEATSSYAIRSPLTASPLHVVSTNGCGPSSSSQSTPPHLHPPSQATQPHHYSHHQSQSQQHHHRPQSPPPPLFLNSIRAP", "UniProt P12004": "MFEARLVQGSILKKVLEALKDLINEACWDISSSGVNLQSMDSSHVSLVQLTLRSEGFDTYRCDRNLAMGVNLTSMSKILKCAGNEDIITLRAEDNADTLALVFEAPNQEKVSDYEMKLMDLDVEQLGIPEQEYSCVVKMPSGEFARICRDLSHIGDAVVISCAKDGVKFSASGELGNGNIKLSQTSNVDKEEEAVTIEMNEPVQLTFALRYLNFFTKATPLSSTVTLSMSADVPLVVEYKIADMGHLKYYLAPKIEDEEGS", "UniProt P16791": "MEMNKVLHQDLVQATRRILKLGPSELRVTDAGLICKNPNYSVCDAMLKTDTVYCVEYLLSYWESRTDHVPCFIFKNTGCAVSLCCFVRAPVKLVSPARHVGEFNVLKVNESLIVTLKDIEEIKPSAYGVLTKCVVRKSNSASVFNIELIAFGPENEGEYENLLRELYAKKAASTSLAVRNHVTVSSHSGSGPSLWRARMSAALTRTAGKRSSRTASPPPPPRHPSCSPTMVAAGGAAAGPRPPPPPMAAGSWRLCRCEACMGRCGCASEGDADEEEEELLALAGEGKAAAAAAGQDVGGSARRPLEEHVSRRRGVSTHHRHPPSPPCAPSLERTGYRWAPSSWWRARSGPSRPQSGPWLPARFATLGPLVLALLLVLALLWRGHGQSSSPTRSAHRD"}, "source": "paper PMC8949324", "key": {"[1]": {"target": "FLAG-tagged UL53 expressed from 53-F HCMV (AD169-RV encoding a FLAG-tagged version of UL53) (human cytomegalovirus (HCMV), strain AD169) (UniProt P16794)", "test": "co-IP"}, "[2]": {"target": "UL53-FLAG (pcDNA vector encoding a FLAG-tagged version of UL53) (human cytomegalovirus (HCMV)) (UniProt P16794)", "test": "co-IP"}}, "note": "No constants are given. Whether binding was seen depends on the method and setting. In cells and extracts the contact can be indirect. Some entries that bind do so weakly or less than the wild type.", "data": [{"substance": "PCNA (from UniProt P12004 1-261)", "values": [{"measurement": "binding", "setting": "[1]", "value": "no binding"}]}, {"substance": "UL50 (from UniProt P16791 1-397)", "values": [{"measurement": "binding", "setting": "[1]", "value": "binds"}]}, {"substance": "UL50-HA (pcDNA-based plasmid encoding an HA-tagged version of UL50) (from UniProt P16791 1-397)", "values": [{"measurement": "binding", "setting": "[2]", "value": "binds"}]}]}
